Reference: paper PMC9972622
No constants are given. Whether binding was seen depends on the method and setting. In cells and extracts the contact can be indirect. Some results given as binding are weak or reduced against the parent protein; the word gives no strength.

B1: kinesin super-family protein 4A (KIF4A) (protein, UniProt O95239 1-1232)
chain: MKEEVKGIPVRVALRCRPLVPKEISEGCQMCLSFVPGEPQVVVGTDKSFTYDFVFDPSTEQEEVFNTAVAPLIKGVFKGYNATVLAYGQTGSGKTYSMGGAYTAEQENEPTVGVIPRVIQLLFKEIDKKSDFEFTLKVSYLEIYNEEILDLLCPSREKAQINIREDPKEGIKIVGLTEKTVLVALDTVSCLEQGNNSRTVASTAMNSQSSRSHAIFTISLEQRKKSDKNSSFRSKLHLVDLAGSERQKKTKAEGDRLKEGININRGLLCLGNVISALGDDKKGGFVPYRDSKLTRLLQDSLGGNSHTLMIACVSPADSNLEETLNTLRYADRARKIKNKPIVNIDPQTAELNHLKQQVQQLQVLLLQAHGGTLPGSITVEPSENLQSLMEKNQSLVEENEKLSRGLSEAAGQTAQMLERIILTEQANEKMNAKLEELRQHAACKLDLQKLVETLEDQELKENVEIICNLQQLITQLSDETVACMAAAIDTAVEQEAQVETSPETSRSSDAFTTQHALRQAQMSKELVELNKALALKEALARKMTQNDSQLQPIQYQYQDNIKELELEVINLQKEKEELVLELQTAKKDANQAKLSERRRKRLQELEGQIADLKKKLNEQSKLLKLKESTERTVSKLNQEIRMMKNQRVQLMRQMKEDAEKFRQWKQKKDKEVIQLKERDRKRQYELLKLERNFQKQSNVLRRKTEEAAAANKRLKDALQKQREVADKRKETQSRGMEGTAARVKNWLGNEIEVMVSTEEAKRHLNDLLEDRKILAQDVAQLKEKKESGENPPPKLRRRTFSLTEVRGQVSESEDSITKQIESLETEMEFRSAQIADLQQKLLDAESEDRPKQRWENIATILEAKCALKYLIGELVSSKIQVSKLESSLKQSKTSCADMQKMLFEERNHFAEIETELQAELVRMEQQHQEKVLYLLSQLQQSQMAEKQLEESVSEKEQQLLSTLKCQDEELEKMREVCEQNQQLLRENEIIKQKLTLLQVASRQKHLPKDTLLSPDSSFEYVPPKPKPSRVKEKFLEQSMDIEDLKYCSEHSVNEHEDGDGDDDEGDDEEWKPTKLVKVSRKNIQGCSCKGWCGNKQCGCRKQKSDCGVDCCCDPTKCRNRQQGKDSLGTVERTQDSEGSFKLEDPTEVTPGLSFFNPVCATPNSKILKEMCDVEQVLSKKTPPAPSPFDLPELKHVATEYQENKAPGKKKKRALASNTSFFSGCSPIEEEAH
B2: DEP domain 1 protein (DEPDC1) (protein, UniProt Q5TB30 1-811)
chain: MESQGVPPGPYRATKLWNEVTTSFRAGMPLRKHRQHFKKYGNCFTAGEAVDWLYDLLRNNSNFGPEVTRQQTIQLLRKFLKNHVIEDIKGRWGSENVDDNNQLFRFPATSPLKTLPRRYPELRKNNIENFSKDKDSIFKLRNLSRRTPKRHGLHLSQENGEKIKHEIINEDQENAIDNRELSQEDVEEVWRYVILIYLQTILGVPSLEEVINPKQVIPQYIMYNMANTSKRGVVILQNKSDDLPHWVLSAMKCLANWPRSNDMNNPTYVGFERDVFRTIADYFLDLPEPLLTFEYYELFVNILVVCGYITVSDRSSGIHKIQDDPQSSKFLHLNNLNSFKSTECLLLSLLHREKNKEESDSTERLQISNPGFQERCAKKMQLVNLRNRRVSANDIMGGSCHNLIGLSNMHDLSSNSKPRCCSLEGIVDVPGNSSKEASSVFHQSFPNIEGQNNKLFLESKPKQEFLLNLHSEENIQKPFSAGFKRTSTLTVQDQEELCNGKCKSKQLCRSQSLLLRSSTRRNSYINTPVAEIIMKPNVGQGSTSVQTAMESELGESSATINKRLCKSTIELSENSLLPASSMLTGTQSLLQPHLERVAIDALQLCCLLLPPPNRRKLQLLMRMISRMSQNVDMPKLHDAMGTRSLMIHTFSRCVLCCAEEVDLDELLAGRLVSFLMDHHQEILQVPSYLQTAVEKHLDYLKKGHIENPGDGLFAPLPTYSYCKQISAQEFDEQKVSTSQAAIAELLENIIKNRSLPLKEKRKKLKQFQKEYPLIYQKRFPTTESEAALFGDKPTIKQPMLILRKPKFRSLR

Experiments:
[1] = target: T1, DEP domain 1 protein (DEPDC1) (human (endogenous in U2OS)) (UniProt Q5TB30); test: co-IP; U2OS cell proteins extracted in immunoprecipitation buffer, incubated with anti-DEPDC1 or anti-KIF4A overnight at 4 °C, protein A/G magnetic beads 3 h at 4 °C, western blot
T1 sequence: B2 chain

[2] = target: T2, kinesin super-family protein 4A (KIF4A) (human (endogenous in U2OS)) (UniProt O95239); test: as above
T2 sequence: B1 chain

Row | Binder | binding [1] | binding [2]
1 | B1 | binds | 
2 | B2 |  | binds
